± gives the standard deviation of the averaged measurements. The list shows a part of the results.
compound: Nc1nc2c(ncn2[C@@H]2O[C@H](COP(=O)(O)OP(=O)(O)OP(=O)(O)O)[C@@H](O)[C@H]2O)c(=O)[nH]1 [guanosine triphosphate]; assay: NP40-soluble protein abundance relative to vehicle (solubility fold change) (ratio); higher = more soluble protein in presence of GTP; settings: concentration: 2mM
Outline: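 Values are fold changes against the detergent-processed vehicle, based on vsn-normalised intensities. Jurkat crude lysate was treated at eight concentrations from 0.1 to 10 mM (10 min at room temperature, then 3 min at 37 °C), solubilised with 0.8% NP40 and benzonase, ultracentrifuged and analysed by TMT-labelled LC-MS/MS over three independent experiments.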

Sequences of proteins named here, by UniProt entry; tags and fusion partners are left off. A change or cut given only in a name is not applied to a line headed by its entry.
UniProt Q8IVS2: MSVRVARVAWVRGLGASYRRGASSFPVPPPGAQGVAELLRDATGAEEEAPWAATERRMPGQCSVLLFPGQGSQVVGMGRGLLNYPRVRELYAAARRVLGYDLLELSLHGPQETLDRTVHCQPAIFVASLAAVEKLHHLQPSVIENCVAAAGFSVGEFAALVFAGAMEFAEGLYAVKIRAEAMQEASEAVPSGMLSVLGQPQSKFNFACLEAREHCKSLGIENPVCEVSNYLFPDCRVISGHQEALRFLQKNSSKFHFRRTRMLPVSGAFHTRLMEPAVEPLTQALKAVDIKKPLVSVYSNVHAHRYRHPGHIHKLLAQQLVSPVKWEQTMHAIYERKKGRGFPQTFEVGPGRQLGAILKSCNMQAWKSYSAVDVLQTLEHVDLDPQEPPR
UniProt Q8IWT6: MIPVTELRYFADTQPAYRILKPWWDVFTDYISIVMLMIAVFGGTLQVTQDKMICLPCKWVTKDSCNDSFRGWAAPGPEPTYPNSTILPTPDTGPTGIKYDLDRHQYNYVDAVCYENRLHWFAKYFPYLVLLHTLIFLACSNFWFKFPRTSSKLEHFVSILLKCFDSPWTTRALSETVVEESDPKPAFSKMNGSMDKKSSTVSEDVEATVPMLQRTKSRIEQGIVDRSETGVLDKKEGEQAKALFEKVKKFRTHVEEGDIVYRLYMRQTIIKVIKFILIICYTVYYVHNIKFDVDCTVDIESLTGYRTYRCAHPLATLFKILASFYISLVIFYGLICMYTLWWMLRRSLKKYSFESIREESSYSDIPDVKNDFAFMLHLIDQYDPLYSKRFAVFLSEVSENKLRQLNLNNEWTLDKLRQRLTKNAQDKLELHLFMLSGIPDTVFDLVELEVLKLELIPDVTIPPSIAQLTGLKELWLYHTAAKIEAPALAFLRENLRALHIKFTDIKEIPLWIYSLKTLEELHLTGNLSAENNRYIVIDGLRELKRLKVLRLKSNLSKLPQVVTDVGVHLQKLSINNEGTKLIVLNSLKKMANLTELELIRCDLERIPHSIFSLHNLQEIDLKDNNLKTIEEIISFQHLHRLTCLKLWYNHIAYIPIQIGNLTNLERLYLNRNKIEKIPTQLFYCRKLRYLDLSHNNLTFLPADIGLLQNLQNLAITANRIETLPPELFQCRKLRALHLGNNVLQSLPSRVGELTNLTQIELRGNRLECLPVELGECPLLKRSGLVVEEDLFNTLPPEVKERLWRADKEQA
UniProt Q8NFH3: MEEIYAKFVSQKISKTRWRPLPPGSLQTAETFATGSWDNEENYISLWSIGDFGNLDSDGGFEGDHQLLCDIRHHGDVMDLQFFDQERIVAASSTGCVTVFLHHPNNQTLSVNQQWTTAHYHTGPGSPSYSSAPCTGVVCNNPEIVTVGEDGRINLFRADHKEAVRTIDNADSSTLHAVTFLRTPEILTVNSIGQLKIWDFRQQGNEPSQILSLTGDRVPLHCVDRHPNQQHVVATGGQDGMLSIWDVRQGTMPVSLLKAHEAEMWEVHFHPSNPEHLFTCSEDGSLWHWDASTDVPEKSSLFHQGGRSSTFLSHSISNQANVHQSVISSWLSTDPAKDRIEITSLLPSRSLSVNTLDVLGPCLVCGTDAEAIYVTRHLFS
UniProt Q8NCN4: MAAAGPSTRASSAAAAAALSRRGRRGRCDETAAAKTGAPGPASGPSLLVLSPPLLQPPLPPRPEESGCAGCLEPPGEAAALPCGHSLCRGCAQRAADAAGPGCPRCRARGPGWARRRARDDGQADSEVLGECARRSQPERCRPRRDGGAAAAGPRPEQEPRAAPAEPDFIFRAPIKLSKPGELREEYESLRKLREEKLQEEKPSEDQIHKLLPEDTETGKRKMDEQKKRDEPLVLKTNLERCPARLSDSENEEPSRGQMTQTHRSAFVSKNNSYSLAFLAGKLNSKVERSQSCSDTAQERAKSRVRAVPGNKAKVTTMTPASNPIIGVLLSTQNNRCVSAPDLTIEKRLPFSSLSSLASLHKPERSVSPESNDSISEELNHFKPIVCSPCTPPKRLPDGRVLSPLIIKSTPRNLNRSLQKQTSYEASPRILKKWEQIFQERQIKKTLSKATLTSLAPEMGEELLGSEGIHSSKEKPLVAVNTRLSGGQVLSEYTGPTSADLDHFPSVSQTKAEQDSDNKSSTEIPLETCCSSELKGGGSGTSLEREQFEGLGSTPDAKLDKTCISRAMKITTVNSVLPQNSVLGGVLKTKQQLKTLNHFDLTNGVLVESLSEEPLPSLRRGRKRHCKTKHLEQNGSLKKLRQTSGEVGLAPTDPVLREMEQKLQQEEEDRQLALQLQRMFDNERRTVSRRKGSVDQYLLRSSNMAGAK
UniProt Q8TDY2, whole entry: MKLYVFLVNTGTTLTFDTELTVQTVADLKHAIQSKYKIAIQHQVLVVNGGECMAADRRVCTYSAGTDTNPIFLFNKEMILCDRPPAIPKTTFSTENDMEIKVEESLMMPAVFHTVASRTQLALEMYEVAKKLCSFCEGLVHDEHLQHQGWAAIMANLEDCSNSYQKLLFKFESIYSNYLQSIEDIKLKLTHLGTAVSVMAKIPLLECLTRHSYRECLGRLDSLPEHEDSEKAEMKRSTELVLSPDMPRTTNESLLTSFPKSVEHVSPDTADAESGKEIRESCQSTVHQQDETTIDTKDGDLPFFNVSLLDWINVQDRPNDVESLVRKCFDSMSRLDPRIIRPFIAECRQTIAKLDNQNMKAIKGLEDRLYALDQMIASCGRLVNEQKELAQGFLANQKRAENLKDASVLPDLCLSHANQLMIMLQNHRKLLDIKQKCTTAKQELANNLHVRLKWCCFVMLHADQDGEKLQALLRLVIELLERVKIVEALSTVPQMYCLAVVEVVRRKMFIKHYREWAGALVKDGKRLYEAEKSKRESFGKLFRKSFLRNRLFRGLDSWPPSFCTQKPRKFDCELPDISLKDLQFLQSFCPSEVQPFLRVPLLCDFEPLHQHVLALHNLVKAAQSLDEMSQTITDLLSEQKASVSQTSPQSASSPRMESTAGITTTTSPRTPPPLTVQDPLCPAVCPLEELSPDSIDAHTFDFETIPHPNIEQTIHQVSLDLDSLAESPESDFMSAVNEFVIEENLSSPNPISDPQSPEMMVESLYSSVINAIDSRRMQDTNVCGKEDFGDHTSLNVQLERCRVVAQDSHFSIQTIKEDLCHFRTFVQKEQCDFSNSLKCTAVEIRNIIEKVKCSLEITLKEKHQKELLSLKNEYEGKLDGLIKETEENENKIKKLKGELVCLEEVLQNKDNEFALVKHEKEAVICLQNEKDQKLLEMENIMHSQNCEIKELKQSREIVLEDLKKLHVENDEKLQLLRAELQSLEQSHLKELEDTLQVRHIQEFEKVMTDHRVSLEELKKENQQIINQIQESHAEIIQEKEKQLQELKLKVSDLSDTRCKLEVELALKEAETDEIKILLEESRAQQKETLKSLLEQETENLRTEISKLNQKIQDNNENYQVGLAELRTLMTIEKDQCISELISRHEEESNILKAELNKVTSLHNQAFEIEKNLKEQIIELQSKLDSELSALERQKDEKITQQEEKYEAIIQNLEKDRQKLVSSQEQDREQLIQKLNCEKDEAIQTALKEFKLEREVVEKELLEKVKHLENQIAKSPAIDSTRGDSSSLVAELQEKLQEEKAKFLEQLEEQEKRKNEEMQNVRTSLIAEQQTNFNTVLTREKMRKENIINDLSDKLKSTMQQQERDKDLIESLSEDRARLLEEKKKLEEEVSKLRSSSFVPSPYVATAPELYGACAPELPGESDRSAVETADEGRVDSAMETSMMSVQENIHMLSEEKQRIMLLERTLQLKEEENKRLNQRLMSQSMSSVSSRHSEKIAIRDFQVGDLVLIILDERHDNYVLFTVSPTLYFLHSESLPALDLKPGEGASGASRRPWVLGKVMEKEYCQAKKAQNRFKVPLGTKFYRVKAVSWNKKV
UniProt Q8NCW5: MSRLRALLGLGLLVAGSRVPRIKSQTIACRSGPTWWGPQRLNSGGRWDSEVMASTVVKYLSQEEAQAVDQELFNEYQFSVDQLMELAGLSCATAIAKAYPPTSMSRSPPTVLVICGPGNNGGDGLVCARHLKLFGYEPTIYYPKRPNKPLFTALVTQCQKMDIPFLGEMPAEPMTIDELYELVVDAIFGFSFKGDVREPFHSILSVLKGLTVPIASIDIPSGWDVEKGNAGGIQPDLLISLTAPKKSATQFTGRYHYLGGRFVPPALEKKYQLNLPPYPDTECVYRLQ
UniProt Q8NHM5: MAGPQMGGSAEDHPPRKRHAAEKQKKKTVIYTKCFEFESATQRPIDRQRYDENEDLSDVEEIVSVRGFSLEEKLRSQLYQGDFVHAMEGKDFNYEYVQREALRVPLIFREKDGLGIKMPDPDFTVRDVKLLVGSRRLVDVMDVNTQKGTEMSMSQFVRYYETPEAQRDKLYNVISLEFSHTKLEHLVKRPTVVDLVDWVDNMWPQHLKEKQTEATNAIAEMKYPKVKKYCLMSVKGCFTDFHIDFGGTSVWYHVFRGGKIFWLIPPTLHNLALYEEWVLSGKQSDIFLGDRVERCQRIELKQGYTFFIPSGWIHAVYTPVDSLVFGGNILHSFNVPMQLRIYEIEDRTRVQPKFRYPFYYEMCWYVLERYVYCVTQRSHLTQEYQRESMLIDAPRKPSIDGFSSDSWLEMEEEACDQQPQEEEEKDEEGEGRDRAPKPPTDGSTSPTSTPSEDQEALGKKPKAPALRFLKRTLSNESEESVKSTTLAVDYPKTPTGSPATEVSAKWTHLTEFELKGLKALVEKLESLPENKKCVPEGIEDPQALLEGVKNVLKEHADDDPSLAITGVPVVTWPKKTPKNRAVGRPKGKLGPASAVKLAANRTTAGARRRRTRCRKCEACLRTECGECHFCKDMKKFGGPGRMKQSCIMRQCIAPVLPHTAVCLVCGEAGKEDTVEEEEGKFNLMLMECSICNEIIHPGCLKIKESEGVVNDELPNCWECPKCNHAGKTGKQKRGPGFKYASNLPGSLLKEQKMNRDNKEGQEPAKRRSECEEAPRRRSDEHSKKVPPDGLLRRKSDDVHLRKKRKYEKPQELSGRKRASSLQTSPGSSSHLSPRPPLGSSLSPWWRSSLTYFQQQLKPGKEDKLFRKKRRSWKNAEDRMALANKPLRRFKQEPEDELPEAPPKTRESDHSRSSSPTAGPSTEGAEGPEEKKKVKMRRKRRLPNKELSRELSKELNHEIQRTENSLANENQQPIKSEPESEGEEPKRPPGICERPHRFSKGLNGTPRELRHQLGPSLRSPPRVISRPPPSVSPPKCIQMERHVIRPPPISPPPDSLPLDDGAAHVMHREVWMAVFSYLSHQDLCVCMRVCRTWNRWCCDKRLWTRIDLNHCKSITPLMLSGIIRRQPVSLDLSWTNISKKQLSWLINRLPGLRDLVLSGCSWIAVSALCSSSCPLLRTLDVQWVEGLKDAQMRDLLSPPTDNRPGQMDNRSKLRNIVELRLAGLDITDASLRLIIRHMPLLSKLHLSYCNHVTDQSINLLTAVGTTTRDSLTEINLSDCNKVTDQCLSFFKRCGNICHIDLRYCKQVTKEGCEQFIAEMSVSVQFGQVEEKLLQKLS
UniProt Q8IZ81: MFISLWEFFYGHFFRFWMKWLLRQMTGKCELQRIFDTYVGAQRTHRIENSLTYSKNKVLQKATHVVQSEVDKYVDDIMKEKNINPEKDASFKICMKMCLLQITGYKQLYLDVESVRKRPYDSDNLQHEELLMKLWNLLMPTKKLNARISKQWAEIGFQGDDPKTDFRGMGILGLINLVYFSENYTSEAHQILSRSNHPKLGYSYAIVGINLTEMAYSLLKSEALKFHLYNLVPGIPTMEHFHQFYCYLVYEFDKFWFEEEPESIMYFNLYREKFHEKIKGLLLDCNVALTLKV
UniProt Q8NB16: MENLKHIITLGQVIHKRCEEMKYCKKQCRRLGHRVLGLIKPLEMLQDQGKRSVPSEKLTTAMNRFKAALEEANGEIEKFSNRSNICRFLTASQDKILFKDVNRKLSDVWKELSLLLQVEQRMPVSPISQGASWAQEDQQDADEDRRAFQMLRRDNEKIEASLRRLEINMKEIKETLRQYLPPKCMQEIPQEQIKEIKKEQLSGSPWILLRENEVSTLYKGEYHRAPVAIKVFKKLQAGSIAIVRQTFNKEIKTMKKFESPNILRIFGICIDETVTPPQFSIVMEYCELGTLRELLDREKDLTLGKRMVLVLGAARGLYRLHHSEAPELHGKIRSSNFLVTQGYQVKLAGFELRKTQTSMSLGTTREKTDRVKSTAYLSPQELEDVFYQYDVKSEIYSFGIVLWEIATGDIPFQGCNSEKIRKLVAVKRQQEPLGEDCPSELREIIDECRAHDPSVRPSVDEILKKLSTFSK
UniProt Q8N0Y2: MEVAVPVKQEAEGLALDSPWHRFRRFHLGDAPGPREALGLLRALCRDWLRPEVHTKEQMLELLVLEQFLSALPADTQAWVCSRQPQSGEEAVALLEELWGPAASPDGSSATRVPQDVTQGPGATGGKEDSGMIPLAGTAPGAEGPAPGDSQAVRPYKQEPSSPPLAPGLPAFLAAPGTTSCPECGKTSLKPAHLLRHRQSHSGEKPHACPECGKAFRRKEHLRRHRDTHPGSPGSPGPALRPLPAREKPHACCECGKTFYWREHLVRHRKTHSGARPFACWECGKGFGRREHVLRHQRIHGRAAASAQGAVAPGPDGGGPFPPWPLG

Target	NP40-soluble protein abundance
UniProt Q8N2K0 and related entries	1.017 ± 0.0025
UniProt Q8NI08 and related entries	0.931 ± 0.078
UniProt Q8N6G5 and related entries	0.965 ± 0.026
UniProt Q8IVS2	1.03 ± 0.039
UniProt Q8IWY9 and related entries	1.02 ± 0.045
UniProt Q8NEC7 and related entries	0.917 ± 0.09
UniProt Q8NHU6 and related entries	1.11 ± 0.1
UniProt Q8TEH3 and related entries	1.03 ± 0.23
DCP2 (UniProt Q8IU60)	0.973 ± 0.074
LRRC8A (UniProt Q8IWT6)	1.18 ± 0.024
UniProt Q8IX12 and related entries	0.996 ± 0.03
UniProt Q8ND76 and related entries	1.09 ± 0.034
UniProt Q8N4C8 and related entries	0.9658 ± 0.0049
NFATC2IP (UniProt Q8NCF5)	0.962 ± 0.14
UniProt Q8NDI1-2|Q8NDI1-3|Q8NDI1	0.91 ± 0.089
NUP43 (UniProt Q8NFH3)	1.05 ± 0.099
PLBD2 (UniProt Q8NHP8)	0.945 ± 0.032
UniProt Q8IYB5-2|Q8IYB5-3	0.864 ± 0.081
RNF169 (UniProt Q8NCN4)	1.25 ± 0.12

2 entries from above in another layout.
Target,NP40-soluble protein abundance
UniProt Q8NDI1-2|Q8NDI1-3|Q8NDI1,0.91 ± 0.089
NUP43 (UniProt Q8NFH3),1.05 ± 0.099

The listing continues.

Target	NP40-soluble protein abundance
ZC3H15 (UniProt Q8WU90)	0.936 ± 0.072
UniProt Q8IXQ5 and related entries	1 ± 0.15
UniProt Q8NFV4 and related entries	1.02 ± 0.039
UniProt Q8TDY2 and related entries	1.03 ± 0.033
UniProt Q8NBJ5	0.894 ± 0.033
UniProt Q8NCW5	0.986 ± 0.055
UniProt Q8NHM5 and related entries	1.06 ± 0.087
ZNF579 (UniProt Q8NAF0)	0.991 ± 0.072
UniProt Q8N4V1 and related entries	0.978 ± 0.12
UniProt Q8IZ81 and related entries	0.934 ± 0.069
UniProt Q8IXW5 and related entries	1.05 ± 0.053
MLKL (UniProt Q8NB16)	0.908 ± 0.035
UniProt Q8NDV3 and related entries	0.958 ± 0.11
LIX1L (UniProt Q8IVB5)	0.942 ± 0.076
GALNT12 (UniProt Q8IXK2)	0.99 ± 0.1
UniProt Q8N0Y2 and related entries	1.02 ± 0.052
PPIL4 (UniProt Q8WUA2)	0.96 ± 0.064
DDX51 (UniProt Q8N8A6)	1.35 ± 0.09

From the supplement of paper PMC6411743
